From PubChem BioAssay AID2685 (National Center for Advancing Translational Sciences (NCATS), 2010)
The whole screen tested about 320,000 compounds, of which about 2,100 (0.66%) were called active. This list was built around the results that the source calls inconclusive (neither active nor inactive); the mix of calls is not that of the screen. The call rests on the fitted dose curve; in most records, active means well fitted inhibition curve with a large enough effect in the signal ratio, with a control signal flat (not every such curve was filed as active); inconclusive means small, poorly fitted or top-dose-only effect, or effect the other way, or a change in a side signal; inactive means flat fitted curve, though single readings scatter; the % refers to the signal ratio. A potency beside an inconclusive call is a rough fit, not a confirmed value.

assay: qHTS Assay for Lipid Storage Modulators in Drosophila S3 Cells; conditions: BODIPY lipid droplet fluorescence, 18-24 h, cells fed with added oleic acid; lipid storage change, negative = inhibition: at 46.1 µM (top of the series) unless noted
Outline: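 Drosophila S3 cells got compounds at several concentrations plus oleic acid (400 uM solution). Laser-scanning cytometry with 488 nm excitation read lipid droplets at 500-530 nm and cells at 575-640 nm. Percent activity was relative to 20 uM Triacsin C.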
On the % scale 0 is the no-effect control and ±100 the full control effect; potency means the concentration at half of the fitted maximal effect.

SMILES | lipid storage change, negative = inhibition | Potency
Cc1cc(Cl)c2oc(C(=O)NCC(C)(C)N3CCOCC3)c(C)c2c1 | inconclusive: 38.2% | –
COc1ccc(CCNC(=O)C2CC(c3ccccc3C(F)(F)F)=NO2)cc1 (stereo not given) | inconclusive: 18% | –
O=C(Nc1ccc(-c2nc3ccccc3s2)c(OC(=O)c2ccccc2)c1)c1ccccc1 | inconclusive: 34.3% | –
CC1(C)CC(=O)C=C(c2cccc(O)c2)C1 | inconclusive: 4.44% | –
CCC(=O)NC(c1ccc(OC)cc1)c1c(O)ccc2ccccc12 (stereo not given) | inconclusive: -21% | –
CCOc1ccc(CCNc2ccc3nnc(-c4ccccc4)n3n2)cc1OCC | inconclusive: 0.724% | –
COc1ccc(/C=N/NC(=O)CO/N=C(\C)c2cccs2)cc1 | – | inconclusive: 1030 nM [falling, full curve, poor fit]
C=CCN1C(=O)C(=O)N(Cc2nc3ccccc3s2)C1=O | inconclusive: 14.1% | –
COc1nc(C)nc(NC(=O)NS(=O)(=O)c2ccc(C)cc2)n1 | – | inconclusive: 517 nM [falling, full curve, poor fit]
O=C(OCCNc1nc(-c2ccccc2)nc2ccccc12)c1ccncc1 | inconclusive: 3.54% | –
CCOP(=O)(OCC)C(NC(=O)Nc1c(C)cc(C)cc1C)c1ccccc1 (stereo not given) | inconclusive: 2.11% | –
Cn1nnnc1Sc1ccc(C(=O)O)cc1[N+](=O)[O-] | inconclusive: 13.4% | –
Cc1ccc([N+](=O)[O-])c(C(=O)Nc2cccnc2Cl)c1 | – | inconclusive: 130 nM [falling, full curve, poor fit]
O=C(Nc1nccs1)c1ccc2c(c1)C(=O)N(Cc1cccnc1)C2=O | inconclusive: -39.9% | –
CCn1cc(S(=O)(=O)Nc2ncccn2)cn1 | – | inconclusive: 411 nM [activator, full curve]
O=C(Nc1ccc(S(=O)(=O)Nc2ccccc2)cc1)c1ccc(CN2CCOCC2)cc1 | inconclusive: -29.6% | –
COc1ccc(NC(=O)c2cccnc2)cc1OCC(C)C | inconclusive: -16.3% | –
N#Cc1c(NC(=O)COC(=O)c2nccnc2N)sc2c1CCCC2 | inconclusive: -35.3% [at 0.0737 µM] | –
CSc1ccc(/C=C(/NC(=O)c2ccc(C)cc2)C(=O)Nc2cccc(C)c2)cc1 | inconclusive: -0.523% | –
COC(=O)c1ccc(/C=C2/SC(=S)N(CCC(=O)NCCCN3CCOCC3)C2=O)cc1 | – | inconclusive: 8200 nM [falling, partial curve, poor fit]
COc1ccccc1Oc1ccc(S(=O)(=O)N2CCCCC2C)cc1 (stereo not given) | – | inconclusive: 29100 nM [falling, single point]
CSCCC(NC(=O)COc1ccccc1)C(=O)OCC(=O)c1cc2ccccc2o1 (stereo not given) | – | inconclusive: 291 nM [falling, full curve, poor fit]
CC(C)CCN1CC(C(=O)NCCC2=CCCCC2)CC1=O (stereo not given) | inconclusive: -1.63% | –
CS(=O)(=O)N(CC(=O)Nc1ccccc1C(=O)NCc1ccco1)c1ccccc1F | inconclusive: -18.4% | –
Cc1ccc(NC(=O)c2c(O)c3ccccc3n(C)c2=O)nc1 | inactive | –
O=C(N/N=C/C=C/c1ccccc1)C1CC1(c1ccccc1)c1ccccc1 (stereo not given) | – | inconclusive: 29100 nM [activator, single point]
CCn1c(C)nc2cc(C(=O)NNC(=O)CCC3CCCC3)ccc21 | inconclusive: 0.85% | –

SMILES | lipid storage change, negative = inhibition | Potency
Cc1ccccc1C(OCC(O)CN1CCN(CCO)CC1)c1ccccc1 (stereo not given) | inconclusive: -188% | –
CO/N=C/C(NC(=O)c1ccc(C(F)(F)F)cc1)C(=O)OC (stereo not given) | inconclusive: -2.64% | –
CCCCC(=O)Nc1nnc(SCC(=O)NCC2CCCO2)s1 (stereo not given) | inconclusive: 5.26% | –
Cc1cc(OCC(=O)OCC(=O)N(C)Cc2ccccc2C)ccc1Cl | – | inconclusive: 29100 nM [activator, single point]
COC(=O)c1ccc(COc2ccc(C=O)cc2OC)o1 | inconclusive: -6.1% | –
Cc1cccc(Nc2nc(C)nc3c2oc2ccccc23)c1 | inconclusive: 196% | –
Cc1noc(C)c1COc1cccc(C(=O)Nc2cccnc2)c1 | inconclusive: -23.4% | –
O=C(N/N=C/c1ccc(-c2cccc([N+](=O)[O-])c2)o1)c1cccs1 | – | inconclusive: 1300 nM [rising, full curve]
COc1ccc(/C=N/NC(=O)C2(C)NC(C)(C)Cc3ccccc32)cc1 (stereo not given) | inconclusive: -21.8% | –
Nc1ccc(C(=O)OCC(=O)NC2CC2)cc1[N+](=O)[O-] | inconclusive: -17.8% | –
CS(=O)(=O)N1CCSC1c1ccc(Br)cc1 (stereo not given) | inconclusive: 46.2% | –
COc1ccc(OC)c(NC(=O)COC(=O)c2ccc(OC)c(S(=O)(=O)N3CCOCC3)c2)c1 | inconclusive: -44.7% | –
O=C(CSc1nnc(-c2ccco2)o1)c1ccc(F)c(F)c1 | inconclusive: 70.7% | –
CCOC(=O)C1=C(N)N2C(=O)C(C)SC2=C(C(=O)OCC)C1c1cc(OC)c(OC)c(OC)c1 (stereo not given) | inconclusive: 5.82% | –
C(=N\Nc1ncnc2sc3c(c12)CCC3)/c1ccncc1 | inconclusive: -32.4% | –
CNS(=O)(=O)c1cccc(C(=O)OCC(=O)Nc2ccc(N3CCCCC3)cc2)c1 | – | inconclusive: 29100 nM [cytotoxic, single point]
CCCC(=O)Nc1c(-c2ccc(C)cc2)c(=O)c2ccccc2n1C | inconclusive: -3.54% | –
COc1c(Cl)cc(Cl)cc1C(=O)Nc1ccc(CN2CCCCC2)cc1 | inconclusive: -77.6% | –
CN(C)c1ccc(CNc2ccc3c(c2)ncn3C(C)(C)C)cc1 | inconclusive: -53.2% | –
COc1ccc(/C=C(\C#N)C(=O)Nc2ccc3[nH]c(=O)[nH]c3c2)cc1 | – | inconclusive: 1300 nM [falling, full curve, poor fit]
C/C(CC(=O)Nc1ccc([N+](=O)[O-])cc1)=N\NC(=O)c1ccccc1O | inconclusive: -28.5% | –
CN(C(=O)c1ccc2c(c1)CCN2S(C)(=O)=O)c1ccccc1 | inconclusive: -11.9% | –
CCOc1ccc(CCNC(=O)COC(=O)c2nn(C)c(=O)c3ccccc23)cc1OCC | inconclusive: -26.7% | –
O=C(c1ccc(N2CCCCS2(=O)=O)cc1)N1CCN(c2ccccc2F)CC1 | inconclusive: 44.2% | –
Cn1nnc(NC(=S)NC(=O)Cc2ccccc2)n1 | inconclusive: -1.85% | –
Cc1c(C)n(CCc2ccccc2)c2ncnc(NCCO)c12 | inconclusive: -6.3% | –
Cc1ccc(NC(=O)CN2C(=O)C3C4C=CC(C4)C3C2=O)cc1S(=O)(=O)N(C)C (stereo not given) | inconclusive: 27.9% | –

SMILES | lipid storage change, negative = inhibition | Potency
COc1cccc(-c2nc(CS(=O)(=O)CC(=O)NCCCN3CCc4ccccc4C3)c(C)o2)c1 | inconclusive: 34.6% | –
CCOCCCNC(=S)N(Cc1ccccc1)Cc1nc2ccccc2c(=O)[nH]1 | – | active: 920 nM
Cc1ccc(C(=O)N/C(=C\c2cn(C)c3ccccc23)C(=O)OCCN(C)C)cc1 | inconclusive: 1.91% | –
Cc1cc(Br)ccc1OCCCCNC(C)(C)C | inconclusive: -9.43% | –
CC(C)(C)c1ccc(CN(Cc2ccccc2)C(c2ccccn2)c2nnnn2C(C)(C)C)cc1 (stereo not given) | inconclusive: 164% | –
Cc1ccc(OCCC(=O)OC(C)C(=O)NC2CC2)cc1 (stereo not given) | inconclusive | –
O=C(Cc1ccccc1[N+](=O)[O-])NC1CC2CCC1C2 (stereo not given) | inconclusive: 14.2% | –
CC1(C(=O)O)C=CCN1C(=O)c1ccccc1 (stereo not given) | inconclusive: -12.5% | –
COc1ccc(CC(NC(C)=O)C(=O)NC2CCN(S(=O)(=O)c3ccccc3)CC2)c(OC)c1 (stereo not given) | – | inconclusive: 4110 nM [activator, single point]
CC(=O)C(=Cc1ccc(C(=O)O)cc1)C(C)=O | inconclusive: 7.11% | –
COc1ccc(N2CCN(C(=O)COC(=O)COc3ccc(C#N)cc3)CC2)cc1 | inconclusive: -7.26% | –
COc1ccc(NC(=O)COC(=O)c2cccc(S(=O)(=O)N3CCCCC3)c2)c(OC)c1 | inconclusive: 45.4% | –
CCOC(=O)C1CCN(S(=O)(=O)CCNC(=O)c2ccc(F)cc2)CC1 | inconclusive: 38% | –
Cc1ccc(/C=N\NC(=O)COc2ccc(C)cc2[N+](=O)[O-])cc1 | inconclusive: 8.68% | –
CCOC(=O)c1sc(C)c2c(=O)n(CC)nnc12 | – | inconclusive: 920 nM [rising, single point]
O=C(CSC1=NCCS1)Nc1ccnc2ccccc12 | inconclusive: -117% | –
Cc1ccc(CNC(=O)c2c(C)cc(=O)oc2C)cc1 | – | inconclusive: 10300 nM [activator, partial curve]
CC1CCN(C(=O)CCc2nc3cc(S(=O)(=O)N(C)C)ccc3n2C)CC1 | inconclusive: 25.1% | –
CCC/C=C(\CCC)C(NC(=O)OCC(C)C)c1ccc(C(=O)OC)cc1 (stereo not given) | inconclusive: -1.03% | –
Cc1ccc(S(=O)(=O)NCC(=O)N(CC(=O)NCc2ccco2)Cc2ccc3c(c2)OCO3)cc1 | inconclusive: 16.2% | –
CCOC(=O)c1[nH]cnc1C(=O)Nc1ccc(C)cc1 | – | inconclusive: 103 nM [activator, full curve, poor fit]
Cc1ccc(CCNC(=O)C2CCCN(S(=O)(=O)N3CC(C)CC(C)C3)C2)cc1 (stereo not given) | inactive | –
CC(C)(C)NC(=O)COC(=O)c1cc(S(=O)(=O)N2CCCCC2)ccc1N1CCOCC1 | inactive | –
Cc1cccc(C)c1OCC(=O)Nc1ccccc1C(=O)N1CCOCC1 | inconclusive: -28.7% | –
CSCCC(NS(=O)(=O)c1ccc(Br)cc1)C(=O)OCC(=O)NC1CC1 (stereo not given) | inconclusive: -10% | –
N#Cc1cc(C(=O)c2ccccc2O)cn(-c2ccc(Cl)cc2)c1=O | inconclusive: -16.4% | –

Structures listed so far with an aryl methoxy group:
SMILES | lipid storage change, negative = inhibition | Potency
COc1ccc(CCNC(=O)C2CC(c3ccccc3C(F)(F)F)=NO2)cc1 (stereo not given) | inconclusive: 18% | –
CCC(=O)NC(c1ccc(OC)cc1)c1c(O)ccc2ccccc12 (stereo not given) | inconclusive: -21% | –
COc1ccc(/C=N/NC(=O)CO/N=C(\C)c2cccs2)cc1 | – | inconclusive: 1030 nM [falling, full curve, poor fit]
COc1nc(C)nc(NC(=O)NS(=O)(=O)c2ccc(C)cc2)n1 | – | inconclusive: 517 nM [falling, full curve, poor fit]
COc1ccc(NC(=O)c2cccnc2)cc1OCC(C)C | inconclusive: -16.3% | –
COc1ccccc1Oc1ccc(S(=O)(=O)N2CCCCC2C)cc1 (stereo not given) | – | inconclusive: 29100 nM [falling, single point]
COC(=O)c1ccc(COc2ccc(C=O)cc2OC)o1 | inconclusive: -6.1% | –
COc1ccc(/C=N/NC(=O)C2(C)NC(C)(C)Cc3ccccc32)cc1 (stereo not given) | inconclusive: -21.8% | –
COc1ccc(OC)c(NC(=O)COC(=O)c2ccc(OC)c(S(=O)(=O)N3CCOCC3)c2)c1 | inconclusive: -44.7% | –
CCOC(=O)C1=C(N)N2C(=O)C(C)SC2=C(C(=O)OCC)C1c1cc(OC)c(OC)c(OC)c1 (stereo not given) | inconclusive: 5.82% | –
COc1c(Cl)cc(Cl)cc1C(=O)Nc1ccc(CN2CCCCC2)cc1 | inconclusive: -77.6% | –
COc1ccc(/C=C(\C#N)C(=O)Nc2ccc3[nH]c(=O)[nH]c3c2)cc1 | – | inconclusive: 1300 nM [falling, full curve, poor fit]
COc1cccc(-c2nc(CS(=O)(=O)CC(=O)NCCCN3CCc4ccccc4C3)c(C)o2)c1 | inconclusive: 34.6% | –
COc1ccc(CC(NC(C)=O)C(=O)NC2CCN(S(=O)(=O)c3ccccc3)CC2)c(OC)c1 (stereo not given) | – | inconclusive: 4110 nM [activator, single point]
COc1ccc(N2CCN(C(=O)COC(=O)COc3ccc(C#N)cc3)CC2)cc1 | inconclusive: -7.26% | –
COc1ccc(NC(=O)COC(=O)c2cccc(S(=O)(=O)N3CCCCC3)c2)c(OC)c1 | inconclusive: 45.4% | –

Another view of two compounds above.
SMILES	lipid storage change, negative = inhibition	Potency
CC1(C(=O)O)C=CCN1C(=O)c1ccccc1 (stereo not given)	inconclusive: -12.5%	–
COc1ccc(CC(NC(C)=O)C(=O)NC2CCN(S(=O)(=O)c3ccccc3)CC2)c(OC)c1 (stereo not given)	–	inconclusive: 4110 nM [activator, single point]
